Data on 60 compounds can be found in PubChem BioAssay AID2685 (National Center for Advancing Translational Sciences (NCATS), 2010).

The nature of the assay: qHTS Assay for Lipid Storage Modulators in Drosophila S3 Cells.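 On cell number change: cells counted by Cell Tracker Red CMTPX staining in the red channel.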 Particulars: BODIPY lipid droplet fluorescence, 18-24 h; for cell number change: measured here: cell count max response, cells fed with added oleic acid. Summed up:
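Laser-scanning cytometry quantifies lipid droplet accumulation (500–530 nm total intensity; droplet/cell object ratio) in oleic acid-fed (400 uM added) Drosophila S3 cells treated with a concentration series. 20 uM Triacsin C defined 100% inhibition.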
Background: Quantitative high-throughput screening tests each substance at several concentrations.

Where [1] appears, read: measured here: lipid fluorescence (Fed channel) AC50, cells fed with added oleic acid.
[2] abbreviates: measured here: cell number channel AC50, cells fed with added oleic acid.

Molecules are shown by their SMILES. The list shows a part of the results. The main result of the screen is listed elsewhere. These columns were measured beside it and carry no call. Compounds called inactive in the main read-out are mostly missing here. Words in brackets tell the shape of the fitted curve; partial curves, single points and poor fits give uncertain potencies.

The AC50 is the midpoint of the concentration-response curve, whichever way the signal moves. The low end stands for activity at low concentration, the high end for activity only at high concentration. On to `COc1ccc(NC(=S)NNC(=O)c2cccs2)cc1`, for which the cell number change is -3.33%. Moreover, the AC50 under setting [1] is 4.11 µM [rising, single point].

In the case of `CC(C)C[C@H](NC(=O)c1nc[nH]c1C(=O)N[C@@H](CC(C)C)C(=O)OC(C)(C)C)C(=O)OCc1ccccc1`, the AC50 reads like this: under setting [2], 0.00411 µM [rising, full curve, poor fit]; under setting [1], 7.31 µM [falling, partial curve].

With `Cc1ccc(C(C)(C)C)c(OCCCn2ccnc2)c1`, the cell number change is -8.48%. In addition, the AC50 under setting [1] was 0.13 µM [rising, full curve, poor fit].

For the compound `CC(=O)c1c(C)[nH]c(C(=O)NCc2ccccn2)c1C`, the AC50 under setting [2] is 3.66 µM [rising, single point] and the AC50 under setting [1] is 6.51 µM [rising, single point].

As to `CC1CCN(C(=O)CSc2nnc(CNc3ccc(F)cc3)n2Cc2ccco2)CC1`, the cell number change was -6.17%. The AC50 under setting [1] was 3.26 µM [falling, full curve].

Regarding `CN1CCN(c2nc(-c3ccco3)cc(C(F)(F)F)n2)CC1`, the cell number change stood at 19.1%.

Take `O=C(NCc1ccccn1)C1CCN(S(=O)(=O)c2cccs2)CC1`: the cell number change came out at 5.97%. Besides, the AC50 under setting [1] is 6.51 µM [falling, single point].

In the case of `COC(=O)c1ccccc1NC(=O)c1cncc(Br)c1`, the cell number change was determined as 15%. The concentration at half-maximal activity (AC50) under setting [1] is 0.00651 µM [rising, full curve, poor fit].

Take `CC1CCc2nc(/C(C#N)=C/c3ccncc3)sc2C1` (centres undefined): the AC50 under setting [1] was 3.26 µM [rising, single point].

As to `Cc1ccc(S(=O)(=O)NNC(=O)c2ccncc2)cc1[N+](=O)[O-]`, the cell number change is -5.8%. The half-maximal activity concentration (AC50) under setting [1] was 29.1 µM [rising, single point].

In the case of `O=C1NC(=O)C2C1C(c1ccccc1)N1C3C(=O)NC(=O)C3C(c3ccccc3)N21` (centres undefined), the cell number change was -21.3%. Besides, the AC50 under setting [2] was 0.164 µM [falling, full curve, poor fit].

On to `O=C(NCc1ccco1)C(=S)N1CCCC1`, for which the cell number change amounted to 3.51%. Further, under setting [2], the AC50 is 7.31 µM [falling, single point].

On to `CCS(=O)(=O)N1CCN(S(=O)(=O)c2ccccc2[N+](=O)[O-])CC1`, for which the cell number change is -13.7%. Moreover, the concentration at half-maximal activity (AC50) under setting [1] was 29.1 µM [falling, single point].

Take `COc1cccc(NC(=O)CSc2ncnc3c2oc2ccccc23)c1`: the cell number change is 75.3%. Under setting [2], the AC50 was 2.91 µM [rising, full curve]. Also, under setting [1], the AC50 was 23.1 µM [rising, single point].

On to `COc1ccc(O)c(CN2CCC(n3nccc3NC(=O)c3ccccc3Cl)CC2)c1`, for which the cell number change was determined as 26.6%. For the same compound, the AC50 under setting [2] is 0.146 µM [rising, full curve, poor fit]. Also, under setting [1], the AC50 was 3.66 µM [falling, partial curve].

In the case of `COc1ccc(OC)c(NC(=O)CSc2nnc(-c3ccco3)n2-c2ccccc2)c1`, under setting [2], the concentration at half-maximal activity (AC50) is 0.411 µM [rising, partial curve, poor fit].

In the case of `COc1ccccc1C(CNC(=O)CNC(=O)c1ccc(C)c(C)c1)N1CCCC1` (centres undefined), the cell number change came out at 0.402%. The AC50 under setting [1] was 20.6 µM [rising, partial curve, poor fit].

In the case of `O=C(CN(Cc1ccco1)C(=O)c1ccc([N+](=O)[O-])cc1)Nc1ccccc1C(F)(F)F`, the cell number change is -7.02%. Besides, the AC50 under setting [1] is 11.6 µM [falling, partial curve, poor fit].

As to `CC(=O)N1CCN(c2ccc(NC(=O)COc3ccc(Cl)cc3Cl)cc2)CC1`, the cell number change was -24.9%. Moreover, under setting [1], the AC50 is 0.103 µM [rising, full curve, poor fit].

For the compound `Cc1noc(C)c1COc1ccc(CC(=O)NCCc2ccccn2)cc1`, the cell number change is 0.794%.

Regarding `O=C(c1ccc(COc2c(F)c(F)cc(F)c2F)o1)N1CCN(c2ccc(Cl)cc2)CC1`, the cell number change was -10.2%. The AC50 under setting [1] was 14.6 µM [rising, partial curve].

With `CCN(Cc1cc2cc(C)ccc2[nH]c1=O)C(=O)c1cccc(OC)c1`, the cell number change stood at 38.2%. For the same compound, under setting [2], the AC50 is 16.4 µM [rising, single point]. In addition, the half-maximal activity concentration (AC50) under setting [1] is 25.9 µM [rising, partial curve, poor fit].

Turning to `NNc1nc2cccnc2n(CCNc2ncc(C(F)(F)F)cc2Cl)c1=O`, the cell number change was 76.8%. For the same compound, the AC50 under setting [2] was 20.6 µM [rising, single point].

Take `CCC(C)NC(=S)Nc1ccc2nc(N3CCN(CC)CC3)cc(C)c2c1` (centres undefined): the cell number change was -25.7%. Further, the half-maximal activity concentration (AC50) under setting [1] was 29.1 µM [falling, single point].

Turning to `Nc1nc(CN2CCCCC2)cs1`, the cell number change was -13%. The AC50 under setting [1] was 1.64 µM [falling, full curve].

For `C/C(=N\NC(=O)COc1cccc(Cl)c1)c1ccc2c(c1)OCCO2`, the cell number change stood at 31.7%. For the same compound, under setting [2], the AC50 is 9.2 µM [rising, partial curve].

`COc1cc(O)c(C(CC(=O)N2CCCC2)c2ccc(N(C)C)cc2)c(OC)c1` (centres undefined): the cell number change stood at 25.9%. Also, the AC50 under setting [1] was 0.116 µM [rising, full curve, poor fit].

Regarding `Cc1cc(C)c2cc(CNC3CCCC3)c(Cl)nc2c1`, the cell number change stood at 0.506%. Further, the AC50 under setting [1] is 0.82 µM [rising, full curve, poor fit].

Regarding `O=C(c1cccc(S(=O)(=O)N2CCN(c3ccccc3)CC2)c1)N1CCCCCCC1`, the cell number change came out at 19.9%. Also, the AC50 under setting [1] was 29.1 µM [rising, single point].

Consider `CCN(CC)/C(=N/S(=O)(=O)c1ccc(C)cc1)c1ccccc1`, for which the cell number change was -54.4%. Moreover, the AC50 under setting [2] is 29.1 µM [falling, single point]. Moreover, the AC50 under setting [1] was 29.1 µM [falling, single point].

On to `CCNc1nc(NCC)n2c(SC(C(=O)Nc3cc(Cl)cc(Cl)c3)c3ccccc3)nnc2n1` (centres undefined), for which the cell number change came out at 25%.

Take `COc1ccc(/C=C/c2c(-c3ccc(OC)cc3)oc3ccc(-c4ccc(OC)cc4)cc23)cc1`: the AC50 under setting [1] was 6.51 µM [rising, partial curve, poor fit].

For `Cc1cccc(N2C(=O)CSC2c2cccnc2)c1` (centres undefined), the cell number change was -15.1%. In addition, under setting [1], the AC50 was 6.51 µM [rising, partial curve, poor fit].

For `CSc1ncccc1C(=O)Nc1cccc(S(=O)(=O)N(C)c2ccccc2)c1`, the cell number change came to 7.13%. Further, the AC50 under setting [1] was 0.00461 µM [falling, full curve, poor fit].

Turning to `O=C(c1ccc(CN2CCc3ccccc3C2)cc1)N1CCc2ccccc2C1`, the cell number change was 31.8%. Also, the AC50 under setting [2] was 1.64 µM [rising, full curve, poor fit]. Also, under setting [1], the AC50 was 29.1 µM [rising, single point].

Turning to `COc1cc(CN2CCN(CCCc3ccccc3)CC2CCO)cc(OC)c1` (centres undefined), the cell number change amounted to 17%.

With `CCOc1ccc(N(CC(=O)NCc2ccccc2Cl)S(=O)(=O)c2c(C)[nH]c(=O)[nH]c2=O)cc1`, the cell number change came out at 3.8%.

Consider `O=[N+]([O-])c1ccc(COc2ncnc3ccccc23)cc1`, for which the cell number change was -34.8%. Moreover, the AC50 under setting [2] was 14.6 µM [falling, partial curve].

For the compound `CCc1ccc(NC(=O)CN(c2ccc(OC)cc2)S(=O)(=O)c2c(C)[nH]c(=O)[nH]c2=O)cc1`, the cell number change was determined as 24.2%.

With `CN(C)/C=C/C(=O)c1cnc2sccn2c1=O`, the cell number change was -29.8%. Further, under setting [2], the AC50 is 0.116 µM [falling, full curve, poor fit]. For the same compound, the AC50 under setting [1] is 0.146 µM [falling, full curve, poor fit].

With `Cc1ccc(C)c(S(=O)(=O)N2CCN(C(C)C(=O)Nc3ccccc3-c3ccccc3)CC2)c1` (centres undefined), the cell number change turned out to be 200%. Moreover, the AC50 under setting [2] is 23.1 µM [rising, single point].

For `COC(=O)c1ccccc1NC(=O)C1COc2ccccc2O1` (centres undefined), the cell number change worked out at 214%. Further, under setting [1], the AC50 was 29.1 µM [rising, single point].

Take `COCCn1c(SCCN2CCCCC2)nc2ccccc2c1=O`: the cell number change was found to be 9.27%.

For `COc1cccc(CNCCO)c1OCc1ccccc1`, the cell number change came out at 39.5%.

In the case of `Oc1c(-c2cc(-c3ccco3)[nH]n2)ccc2ccccc12`, the cell number change is -0.661%. In addition, the AC50 under setting [1] is 6.51 µM [falling, single point].

For the compound `O=C(CSc1nnc(C2COc3ccccc3O2)o1)N1CCOCC1` (centres undefined), the cell number change stood at 17.6%. Also, under setting [1], the AC50 is 7.31 µM [rising, partial curve].

Regarding `O=S(=O)(c1ccccc1)N1CCN(C(=S)NCCc2ccccc2)CC1`, the cell number change is -28.2%.

In the case of `COc1cccc(N/C(N)=N/c2nc(C(F)(F)F)cc(=O)[nH]2)c1`, the cell number change is -35.3%. Besides, the AC50 under setting [2] is 20.6 µM [falling, single point]. Also, the AC50 under setting [1] is 14.6 µM [falling, partial curve, poor fit].

As for `Cc1cccc(N2CCCn3c2nc2c3c(=O)n(CC(=O)OCc3ccccc3)c(=O)n2C)c1`, the cell number change was determined as 8.67%. For the same compound, the half-maximal activity concentration (AC50) under setting [1] is 32.6 µM [rising, single point].

Turning to `COc1cc(OC)cc(C(=O)O/N=C(\N)c2cccc(C)c2)c1`, under setting [1], the AC50 was 29.1 µM [rising, partial curve].

Regarding `Cc1cc(C)n(-c2cc(N3CCN(S(=O)(=O)c4ccc(Cl)cc4)CC3)ccc2[N+](=O)[O-])n1`, the cell number change is -16.3%. For the same compound, the AC50 under setting [1] is 0.731 µM [falling, full curve, poor fit].

Turning to `Cc1ccccc1C(=O)NC1CCN(Cc2nnnn2Cc2ccc(F)cc2)CC1`, the cell number change is -24.5%. Besides, the AC50 under setting [1] was 29.1 µM [falling, single point].

`C[C@@H](NC(=O)c1[nH]cnc1C(=O)Nc1cccc(Cl)c1)c1ccccc1`: the cell number change was -52%. For the same compound, under setting [2], the AC50 is 25.9 µM [falling, single point]. For the same compound, the AC50 under setting [1] is 0.461 µM [falling, single point].

On to `CCCN(CCC)CCNC(=O)C1CCCN(S(=O)(=O)c2ccc3c(c2)oc(=O)n3C)C1` (centres undefined), for which the cell number change is -10.1%.

For the compound `Clc1ccccc1-c1nnc2sc(-c3ccc(Br)o3)nn12`, the cell number change was -21.9%. For the same compound, the AC50 under setting [1] is 0.00461 µM [rising, full curve, poor fit].

For `CC(NC(=O)CCCc1c[nH]c2ccccc12)c1ccc(F)cc1` (centres undefined), the cell number change turned out to be 21.2%.

For `Cc1cc(=O)oc2ccc(OC(=O)CN3C(=O)c4cccc([N+](=O)[O-])c4C3=O)cc12`, the cell number change was -33.9%. Further, the AC50 under setting [2] is 0.731 µM [falling, full curve]. For the same compound, the AC50 under setting [1] is 0.58 µM [falling, full curve].

For `COc1ccc(CCC(=O)NCCOc2ccc(C)cc2)cc1`, the cell number change was -0.185%. In addition, the concentration at half-maximal activity (AC50) under setting [1] was 0.58 µM [rising, partial curve, poor fit].

Take `CN(C)c1ccc(N=Nc2ccccc2C(=O)OCC(=O)N2CCCCCC2)cc1`: the cell number change was 3.02%.

Turning to `CCOC(=O)CCc1c(C)c2ccc(OCC(=O)N3CCOCC3)c(C)c2oc1=O`, the cell number change was -34.1%. Moreover, under setting [2], the AC50 was 35.5 µM [falling, single point]. Moreover, the AC50 under setting [1] was 12.6 µM [falling, partial curve].
